No constants are given. Whether binding was seen depends on the method and setting. Binding calls can cover weak binding; strength is not graded here.
Assays:
[1] = target: human CD73 (ecto-5'-nucleotidase) expressed at the cell surface (human); test: flow cytometry titration on MDA-MB-231 cells (endogenous human CD73)
[2] = target: cynomolgus CD73 expressed at the cell surface (cynomolgus); test: flow cytometry titration on a cell line expressing cynomolgus CD73, PE-labelled secondary antibody
[3] = target: human CD73 (ecto-5'-nucleotidase) expressed at the cell surface (human); test: flow cytometry titration on CD73-transfected cell lines (FIG. 1)
[4] = target: cynomolgus CD73 expressed at the cell surface (cynomolgus); test: as above
[5] = target: human CD73 (ecto-5'-nucleotidase) expressed at the cell surface (human); test: flow cytometry titration on HEK-293T cells transfected with wild type human CD73
[6] = target: human CD73 (ecto-5'-nucleotidase) expressed at the cell surface (human); test: flow cytometry titration on human-CD73-expressing cell line
[7] = target: human CD73 (ecto-5'-nucleotidase) expressed at the cell surface (human); test: flow cytometry titration on a cell line expressing human CD73, PE-labelled secondary antibody
[8] = target: human CD73 (ecto-5'-nucleotidase) expressed at the cell surface (human); test: flow cytometry titration on cells expressing wild type CD73 (FIG. 3B)
[9] = target: cynomolgus CD73 expressed at the cell surface (cynomolgus); test: flow cytometry titration on cynomolgus-CD73-expressing cell line
[10] = target: human CD73 (ecto-5'-nucleotidase) expressed at the cell surface (human); test: flow cytometry titration on cells expressing wild type CD73 (FIG. 3A)
[11] = target: human CD73 (ecto-5'-nucleotidase) expressed at the cell surface (human); test: flow cytometry titration on MDA-MB-231 cells, endogenous CD73 (FIG. 2)
[12] = target: human CD73 (ecto-5'-nucleotidase) expressed at the cell surface (human); test: flow cytometry titration on MDA-MB-231 cells, endogenous CD73

binding [1] | binding [2] | binding [3] | binding [4] | binding [5] | binding [6] | binding [7] | binding [8] | binding [9] | binding [10] | binding [11] | binding [12] | Binder
binds | binds | binds | binds | binds | binds | binds | binds | binds | – | – | – | antibody 12F9 (antibody, human IgG1, V domains shown) VH: QVQLQQSGPELVKPGASVRISCKASGYTFTNYYIHWVKQRPGQGLEWIGWIYPGNVNTKYNEKFKGKATLTADKSSNTAYMQLSSLTSEDSAVYFCAREGGYDRYALDYWGQGTSVTVSS VL: QIVLTQSPALMSASPGEKVTMTCSASSSVSYMYWYQQKPRSSPKPWIYLTSNLASGVPARFSGSGSGTSYSLTISSMEAEDAATYYCQQWSSNPLTFGAGTKLELK
binds | binds | binds | binds | binds | binds | binds | – | binds | binds | binds | binds | antibody 7H10 (antibody, human IgG1, V domains shown) VH: DVQLQESGPGLVKPSQSLSLTCTVTGYSITSDYAWNWIRQFPGNKLEWMGYIIYSGSTSYNPSLNSRISITRDTSKNQFFLQLNSVTTEDTATYYCAREAYLYFDYWGQGTTLTVSS VL: DIQMTQTTSSLSASLGDRVTISCRASQDINNYLNWYQQKPDGTVKLLIYYTSRLHSGVPSRFSGSGSGTDYSLTISNLEREDVATYFCQQGNTLPWTFGGGTKLEIK
